In the test the target is AtPFA-DSP1^49–215 (Arabidopsis thaliana Plant and Fungi Atypical Dual Specificity Phosphatase 1, core catalytic domain) (Arabidopsis thaliana) (UniProt Q9ZVN4). As to the kind of experiment: SEC; gel filtration of the purified AtPFA-DSP1^49–215 construct in solution (Supplementary Fig. 2d); both purified.

Sequences of proteins named here, by UniProt entry; tags and fusion partners are left off. Residues count along the entry.
UniProt Q9ZVN4, residues 49-215: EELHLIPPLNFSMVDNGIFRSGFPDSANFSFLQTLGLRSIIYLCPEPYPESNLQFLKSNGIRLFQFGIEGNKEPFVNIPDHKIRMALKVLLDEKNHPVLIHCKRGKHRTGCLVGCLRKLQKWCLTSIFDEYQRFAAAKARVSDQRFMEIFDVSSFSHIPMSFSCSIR

These are yes or no findings as the source states them, for the method shown.

The record followed here is publication PMC9038691, “A structural exposé of noncanonical molecular reactivity within the protein tyrosine phosphatase WPD loop” (Nature communications, 2022).

For the substance “AtPFA-DSP1^49–215 (Arabidopsis thaliana Plant and Fungi Atypical Dual Specificity Phosphatase 1, core catalytic domain) (from UniProt Q9ZVN4 49-215) (domain or fragment)”, the binding result is given as “no binding”.
